Experimental data reported in the M2OR odorant receptor database.
The list shows a part of the results, in another mix than the full data. The calls were merged from several studies; some rest on single wells. This is one part of the list.

Amino acid sequences for entries named in this document (tags omitted). A change or cut given only in a name is not applied to a line headed by its entry.
UniProt Q96RD3: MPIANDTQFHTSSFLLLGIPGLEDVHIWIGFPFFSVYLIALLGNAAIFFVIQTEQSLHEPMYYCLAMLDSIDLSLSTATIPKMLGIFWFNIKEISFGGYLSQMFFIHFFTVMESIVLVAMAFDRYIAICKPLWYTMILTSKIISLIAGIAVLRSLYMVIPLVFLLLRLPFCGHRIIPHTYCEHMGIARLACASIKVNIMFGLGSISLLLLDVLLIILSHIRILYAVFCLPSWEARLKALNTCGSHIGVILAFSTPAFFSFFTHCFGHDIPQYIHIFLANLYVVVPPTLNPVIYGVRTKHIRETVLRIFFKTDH
UniProt Q8NGK6: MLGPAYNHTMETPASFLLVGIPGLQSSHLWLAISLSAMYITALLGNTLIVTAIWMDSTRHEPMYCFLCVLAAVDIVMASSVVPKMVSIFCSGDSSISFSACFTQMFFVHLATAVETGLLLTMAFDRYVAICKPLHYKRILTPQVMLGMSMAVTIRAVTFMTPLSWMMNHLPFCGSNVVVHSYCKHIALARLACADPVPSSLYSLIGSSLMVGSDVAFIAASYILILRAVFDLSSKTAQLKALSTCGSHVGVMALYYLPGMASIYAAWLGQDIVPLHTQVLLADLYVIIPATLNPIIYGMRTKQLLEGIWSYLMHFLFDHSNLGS
UniProt Q8NH60: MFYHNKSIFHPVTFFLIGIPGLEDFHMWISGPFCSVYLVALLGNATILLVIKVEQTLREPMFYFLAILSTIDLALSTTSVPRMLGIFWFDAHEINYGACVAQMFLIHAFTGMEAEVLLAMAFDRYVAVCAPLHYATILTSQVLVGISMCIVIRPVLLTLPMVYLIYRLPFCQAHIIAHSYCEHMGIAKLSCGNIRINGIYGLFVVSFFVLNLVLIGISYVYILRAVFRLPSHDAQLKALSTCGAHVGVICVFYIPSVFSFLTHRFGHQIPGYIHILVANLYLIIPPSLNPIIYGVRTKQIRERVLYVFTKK
UniProt Q8NGI0: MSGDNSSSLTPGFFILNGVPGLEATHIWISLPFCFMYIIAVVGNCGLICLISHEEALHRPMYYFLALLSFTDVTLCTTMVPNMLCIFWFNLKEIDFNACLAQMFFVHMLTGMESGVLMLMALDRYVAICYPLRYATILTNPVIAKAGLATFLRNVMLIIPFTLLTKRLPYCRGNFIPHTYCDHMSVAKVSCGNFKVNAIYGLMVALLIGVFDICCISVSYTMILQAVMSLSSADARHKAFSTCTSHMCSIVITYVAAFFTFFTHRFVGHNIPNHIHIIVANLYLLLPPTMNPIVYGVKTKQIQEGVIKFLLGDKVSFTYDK
UniProt Q8NGF1: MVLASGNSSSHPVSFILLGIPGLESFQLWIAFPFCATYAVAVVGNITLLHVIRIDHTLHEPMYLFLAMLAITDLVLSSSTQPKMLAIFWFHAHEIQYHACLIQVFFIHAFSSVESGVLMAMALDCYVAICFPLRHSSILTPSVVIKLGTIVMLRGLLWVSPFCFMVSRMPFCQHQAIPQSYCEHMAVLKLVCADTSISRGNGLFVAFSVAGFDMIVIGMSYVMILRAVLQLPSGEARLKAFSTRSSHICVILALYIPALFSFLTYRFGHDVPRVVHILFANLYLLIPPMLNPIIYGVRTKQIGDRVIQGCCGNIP

Key:
Details in all cases: stereoisomer not certain
[1] = target: OR52E6 (Homo sapiens) (UniProt Q96RD3)
Method in brief: (§1)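 Each entry records the cell line, G-protein, co-transfected protein and tags used. Methods varied with the source, often transient luciferase assays in mammalian cell lines. A receptor–molecule pair is called responsive (active) if the original authors judged its signal statistically different from baseline and non-responsive (inactive) otherwise.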

[2] = target: T1, OR52H1 (Homo sapiens) (UniProt Q8NGJ2)
T1 sequence (whole entry): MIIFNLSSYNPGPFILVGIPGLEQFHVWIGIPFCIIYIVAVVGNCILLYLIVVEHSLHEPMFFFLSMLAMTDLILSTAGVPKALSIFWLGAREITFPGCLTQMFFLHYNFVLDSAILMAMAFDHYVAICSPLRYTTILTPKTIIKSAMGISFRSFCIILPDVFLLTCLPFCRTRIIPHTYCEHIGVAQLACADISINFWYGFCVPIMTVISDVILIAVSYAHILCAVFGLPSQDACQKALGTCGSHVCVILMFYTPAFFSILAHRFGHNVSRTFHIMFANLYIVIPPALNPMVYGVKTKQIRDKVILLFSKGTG
Method in brief: as §1

[3] = target: OR52I1 (Homo sapiens) (UniProt Q8NGK6)
Method in brief: as §1

[4] = target: T2, OR52I2 (Homo sapiens) (UniProt Q8NH67)
T2 sequence (whole entry): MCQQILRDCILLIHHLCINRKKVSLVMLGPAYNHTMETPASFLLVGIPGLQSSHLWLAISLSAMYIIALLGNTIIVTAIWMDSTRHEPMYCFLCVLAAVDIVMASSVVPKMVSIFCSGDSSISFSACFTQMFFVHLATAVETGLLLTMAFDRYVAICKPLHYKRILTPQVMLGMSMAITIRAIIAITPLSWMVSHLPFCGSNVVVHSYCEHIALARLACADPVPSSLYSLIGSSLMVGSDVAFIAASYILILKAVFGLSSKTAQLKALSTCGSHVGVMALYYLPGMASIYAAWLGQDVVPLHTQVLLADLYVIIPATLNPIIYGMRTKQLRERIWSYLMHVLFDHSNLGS
Method in brief: as §1

[5] = target: OR52J3 (Homo sapiens) (UniProt Q8NH60)
Method in brief: as §1

[6] = target: T3, OR52K1 (Homo sapiens) (UniProt Q8NGK4)
T3 sequence (whole entry): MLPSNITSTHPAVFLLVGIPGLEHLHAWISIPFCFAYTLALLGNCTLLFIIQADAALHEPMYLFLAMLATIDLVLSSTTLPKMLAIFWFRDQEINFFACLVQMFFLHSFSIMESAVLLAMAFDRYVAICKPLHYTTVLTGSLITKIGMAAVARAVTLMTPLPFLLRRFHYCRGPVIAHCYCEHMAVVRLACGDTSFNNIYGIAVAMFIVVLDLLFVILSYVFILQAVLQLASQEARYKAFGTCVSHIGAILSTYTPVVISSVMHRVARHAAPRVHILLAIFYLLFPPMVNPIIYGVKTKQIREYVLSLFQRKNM
Method in brief: as §1

[7] = target: T4, OR52K2 (Homo sapiens) (UniProt Q8NGK3)
T4 sequence (whole entry): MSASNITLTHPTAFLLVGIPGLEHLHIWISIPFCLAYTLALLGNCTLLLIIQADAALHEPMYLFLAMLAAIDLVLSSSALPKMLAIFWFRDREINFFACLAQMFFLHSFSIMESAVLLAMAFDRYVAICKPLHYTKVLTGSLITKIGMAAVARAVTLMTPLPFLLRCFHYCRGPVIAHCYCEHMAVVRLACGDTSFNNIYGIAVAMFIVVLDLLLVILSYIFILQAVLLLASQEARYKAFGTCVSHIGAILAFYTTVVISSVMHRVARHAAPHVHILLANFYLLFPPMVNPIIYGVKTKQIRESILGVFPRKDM
Method in brief: as §1

[8] = target: T5, OR52L1 (Homo sapiens) (UniProt Q8NGH7)
T5 sequence (whole entry): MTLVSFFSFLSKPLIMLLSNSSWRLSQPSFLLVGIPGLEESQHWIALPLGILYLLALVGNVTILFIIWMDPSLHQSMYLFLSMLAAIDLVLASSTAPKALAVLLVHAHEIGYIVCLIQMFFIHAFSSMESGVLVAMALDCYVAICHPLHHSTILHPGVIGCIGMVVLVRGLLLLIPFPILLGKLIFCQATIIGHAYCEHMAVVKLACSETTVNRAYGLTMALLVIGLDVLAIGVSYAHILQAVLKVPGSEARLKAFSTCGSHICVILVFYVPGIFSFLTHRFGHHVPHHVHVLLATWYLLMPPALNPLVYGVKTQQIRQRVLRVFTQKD
Method in brief: as §1

[9] = target: T6, OR52M1 (Homo sapiens) (UniProt Q8NGK5)
T6 sequence (whole entry): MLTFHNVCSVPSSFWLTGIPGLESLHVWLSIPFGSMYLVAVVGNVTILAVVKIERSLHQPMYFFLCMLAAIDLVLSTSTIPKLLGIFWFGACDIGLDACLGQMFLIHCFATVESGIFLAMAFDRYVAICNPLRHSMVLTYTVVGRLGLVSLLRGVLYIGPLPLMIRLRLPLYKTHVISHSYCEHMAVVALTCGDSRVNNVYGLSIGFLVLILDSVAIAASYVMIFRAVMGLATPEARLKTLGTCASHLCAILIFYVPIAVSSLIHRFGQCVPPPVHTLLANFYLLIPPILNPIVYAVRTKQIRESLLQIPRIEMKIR
Method in brief: as §1

[10] = target: T7, OR52N1 (Homo sapiens) (UniProt Q8NH53)
T7 sequence (whole entry): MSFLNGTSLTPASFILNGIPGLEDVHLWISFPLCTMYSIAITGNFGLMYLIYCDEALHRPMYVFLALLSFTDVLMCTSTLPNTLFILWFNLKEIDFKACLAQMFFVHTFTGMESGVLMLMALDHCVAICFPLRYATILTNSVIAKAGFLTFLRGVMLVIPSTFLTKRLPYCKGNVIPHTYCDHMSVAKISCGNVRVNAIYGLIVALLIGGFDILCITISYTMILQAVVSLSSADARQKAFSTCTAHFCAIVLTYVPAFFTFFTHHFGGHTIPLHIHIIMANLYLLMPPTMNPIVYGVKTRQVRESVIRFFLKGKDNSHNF
Method in brief: as §1

[11] = target: OR52N2 (Homo sapiens) (UniProt Q8NGI0)
Method in brief: as §1

[12] = target: T8, OR52N4 (Homo sapiens) (UniProt Q8NGI2)
T8 sequence (whole entry): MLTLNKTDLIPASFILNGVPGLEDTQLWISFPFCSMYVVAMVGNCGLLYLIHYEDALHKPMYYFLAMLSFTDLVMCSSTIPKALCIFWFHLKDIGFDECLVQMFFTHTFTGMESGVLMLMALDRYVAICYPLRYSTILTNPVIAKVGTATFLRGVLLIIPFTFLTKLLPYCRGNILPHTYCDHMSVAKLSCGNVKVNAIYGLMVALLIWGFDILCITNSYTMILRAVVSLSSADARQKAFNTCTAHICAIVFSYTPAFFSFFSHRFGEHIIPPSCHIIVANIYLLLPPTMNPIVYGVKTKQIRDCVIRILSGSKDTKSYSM
Method in brief: as §1

[13] = target: T9, OR52N5 (Homo sapiens) (UniProt Q8NH56)
T9 sequence (whole entry): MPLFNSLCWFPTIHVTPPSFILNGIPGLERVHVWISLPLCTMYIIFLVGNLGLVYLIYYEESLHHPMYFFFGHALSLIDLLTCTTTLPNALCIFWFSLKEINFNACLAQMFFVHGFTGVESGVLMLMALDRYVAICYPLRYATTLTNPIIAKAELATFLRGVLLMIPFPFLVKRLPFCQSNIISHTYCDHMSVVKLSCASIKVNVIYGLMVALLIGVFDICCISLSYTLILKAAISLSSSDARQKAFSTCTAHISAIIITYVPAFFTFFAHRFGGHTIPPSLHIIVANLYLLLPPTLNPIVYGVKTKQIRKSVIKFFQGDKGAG
Method in brief: as §1

[14] = target: OR52R1 (Homo sapiens) (UniProt Q8NGF1)
Method in brief: as §1

[15] = target: T10, OR52W1 (Homo sapiens) (UniProt Q6IF63)
T10 sequence (whole entry): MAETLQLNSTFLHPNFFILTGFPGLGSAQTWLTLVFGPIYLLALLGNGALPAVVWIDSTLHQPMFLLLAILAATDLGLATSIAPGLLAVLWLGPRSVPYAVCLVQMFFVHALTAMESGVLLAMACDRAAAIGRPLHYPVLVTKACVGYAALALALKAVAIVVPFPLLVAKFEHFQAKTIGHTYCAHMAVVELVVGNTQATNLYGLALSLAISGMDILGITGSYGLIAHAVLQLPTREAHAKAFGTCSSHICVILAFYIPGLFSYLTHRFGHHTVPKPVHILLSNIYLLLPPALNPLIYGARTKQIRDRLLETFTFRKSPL
Method in brief: as §1

[16] = target: T11, OR56A1 (Homo sapiens) (UniProt Q8NGH5)
T11 sequence (whole entry): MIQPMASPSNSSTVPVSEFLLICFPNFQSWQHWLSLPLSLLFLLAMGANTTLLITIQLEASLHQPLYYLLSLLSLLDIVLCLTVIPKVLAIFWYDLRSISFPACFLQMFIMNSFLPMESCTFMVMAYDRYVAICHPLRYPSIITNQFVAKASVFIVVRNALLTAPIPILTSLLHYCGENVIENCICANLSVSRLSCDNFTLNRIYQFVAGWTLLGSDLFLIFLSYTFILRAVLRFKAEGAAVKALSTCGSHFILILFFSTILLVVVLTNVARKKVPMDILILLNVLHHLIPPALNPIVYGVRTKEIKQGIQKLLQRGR
Method in brief: as §1

[17] = target: T12, OR56A3 (Homo sapiens) (UniProt Q8NH54)
T12 sequence (whole entry): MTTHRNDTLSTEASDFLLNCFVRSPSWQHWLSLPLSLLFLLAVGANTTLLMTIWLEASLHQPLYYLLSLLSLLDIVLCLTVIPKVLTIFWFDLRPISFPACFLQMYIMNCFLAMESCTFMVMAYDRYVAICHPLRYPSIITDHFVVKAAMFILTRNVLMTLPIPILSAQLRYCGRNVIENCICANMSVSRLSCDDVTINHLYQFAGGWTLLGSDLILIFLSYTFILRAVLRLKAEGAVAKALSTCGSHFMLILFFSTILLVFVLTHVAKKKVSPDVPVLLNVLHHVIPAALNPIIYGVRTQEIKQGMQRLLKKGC
Method in brief: as §1

[18] = target: T13, OR56A4 (Homo sapiens) (UniProt Q8NGH8)
T13 sequence (whole entry): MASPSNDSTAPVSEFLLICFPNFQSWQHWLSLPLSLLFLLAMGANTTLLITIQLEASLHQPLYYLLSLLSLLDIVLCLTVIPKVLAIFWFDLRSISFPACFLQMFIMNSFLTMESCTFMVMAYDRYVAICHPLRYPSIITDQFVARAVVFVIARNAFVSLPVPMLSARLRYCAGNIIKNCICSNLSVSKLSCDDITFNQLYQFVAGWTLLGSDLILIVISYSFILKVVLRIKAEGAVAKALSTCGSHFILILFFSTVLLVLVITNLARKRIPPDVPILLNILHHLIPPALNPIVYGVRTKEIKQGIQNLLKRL
Method in brief: as §1

| Structure (SMILES) | odorant receptor agonist call [1] | odorant receptor agonist call [2] | odorant receptor agonist call [3] | odorant receptor agonist call [4] | odorant receptor agonist call [5] | odorant receptor agonist call [6] | odorant receptor agonist call [7] | odorant receptor agonist call [8] | odorant receptor agonist call [9] | odorant receptor agonist call [10] | odorant receptor agonist call [11] | odorant receptor agonist call [12] | odorant receptor agonist call [13] | odorant receptor agonist call [14] | odorant receptor agonist call [15] | odorant receptor agonist call [16] | odorant receptor agonist call [17] | odorant receptor agonist call [18] |
| --- | --- | --- | --- | --- | --- | --- | --- | --- | --- | --- | --- | --- | --- | --- | --- | --- | --- | --- |
| CC(=O)C(C)=O | inactive | inactive | inactive | inactive | active | inactive | inactive | inactive | inactive | inactive | inactive | inactive | inactive | inactive | active | inactive | inactive | inactive |
| CC12CCC(CC1)C(C)(C)O2 | inactive | inactive |  |  |  | inactive | inactive |  |  |  |  |  | inactive |  |  | inactive |  | inactive |
| CC(=O)OCC=C(C)CCC=C(C)C | inactive | active |  |  |  | inactive | inactive |  |  |  |  |  | active |  |  | inactive |  | active |
| CC(=O)OC(C)(C)C1CC=C(C)CC1 (stereo unspecified) | inactive | inactive |  |  |  | inactive | inactive |  |  |  |  |  | active |  |  | inactive |  | inactive |
| CC(C)CCC(=O)O | inactive | inactive |  |  |  | inactive | inactive |  |  |  |  |  | inactive |  |  | inactive |  | inactive |
